PubChem BioAssay AID504764, Drosophila RNAi Screening Center | 2011
Assay: 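Genome-wide screen for regulators of Notch-driven gene expression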 (primary screen). System: Drosophila Kc167 cells. Reagents: long dsRNA against Drosophila genes. Duration: about 5 days (4 days dsRNA, then 24 h after transfection). Conditions: transfection of constitutively active membrane-tethered Notch lacking the extracellular domain, read 24 h later. Measured: 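Firefly luciferase from an E(spl)m3 reporter with active Notch, plus control-promoter and uninduced reporter wells for normalisation; unnormalised counts, duplicate wells a and b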. Scale: induced reporter light, run 1, well a and induced reporter light, run 1, well b: higher = more light from the Notch target reporter with active Notch; control promoter light, run 1, well a and control promoter light, run 1, well b: higher = more light from the viral control promoter (cell number, transfection, viability); uninduced reporter light, run 1, well a: higher = more light from the Notch target reporter without active Notch. Call rule: 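Wells with low control signal or poorly matching duplicates excluded; duplicates averaged; per source plate, z beyond ±2 for induced/control log2 ratio or beyond ±1.8 for induced/uninduced marks a hit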. Meaning of the calls: active = modifier hit (raised or lowered Notch signal); inactive = not a hit.
In all, the deposit lists about 22,000 reagents; below is an unselected part of those that have a named target and a result. Over the whole deposit, 403 (1.9%) are marked active. 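Unnormalised raw counts per well; ratio z-scores behind the hit calls and whether each hit raises or lowers signal are not deposited.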 Names joined by + are all predicted targets of the reagent. No sequences are given here. Not given: the amount of reagent.

| gene | amplicon | induced reporter light, run 1, well a | induced reporter light, run 1, well b | control promoter light, run 1, well a | control promoter light, run 1, well b | uninduced reporter light, run 1, well a | activity call |
| --- | --- | --- | --- | --- | --- | --- | --- |
| Uch-L5 (Ubiquitin carboxy-terminal hydrolase L5) | DRSC11314 | 1.12e5 | 98595 | 76385 | 31240 | 8370 | inactive |
| Ir94e (Ionotropic receptor 94e) | DRSC15229 | 1.53e5 | 1.18e5 | 1.85e5 | 1.60e5 | 12528 | inactive |
| CG9752 | DRSC04562 | 1.97e5 | 2.25e5 | 1.83e5 | 1.88e5 | 16340 | inactive |
| PGRP-LC (Peptidoglycan recognition protein LC) | DRSC08980 | 1.75e5 | 1.49e5 | 2.09e5 | 1.98e5 | 13335 | inactive |
| PGRP-LC (Peptidoglycan recognition protein LC) | DRSC10416 | 2.37e5 | 1.97e5 | 3.54e5 | 2.42e5 | 9195 | inactive |
| PGRP-LC (Peptidoglycan recognition protein LC) | DRSC10417 | 2.34e5 | 1.94e5 | 3.02e5 | 2.81e5 | 10388 | inactive |
| CG31313 | DRSC13044 | 1.03e5 | 77490 | 96370 | 1.02e5 | 7432 | inactive |
| Gyf (Gigyf) | DRSC17202 | 37045 | 41025 | 43665 | 43835 | 3482 | inactive |
| wrapper | DRSC04723 | 87825 | 78120 | 63915 | 76385 | 6015 | inactive |
| msd5 (mitotic spindle density 5) | DRSC08560 | 1.20e5 | 98745 | 2.06e5 | 1.27e5 | 10160 | inactive |
| mRpL20 (mitochondrial ribosomal protein L20) | DRSC09828 | 1.40e5 | 1.20e5 | 1.89e5 | 1.72e5 | 6595 | inactive |
| ND-20 (NADH dehydrogenase (ubiquinone) 20 kDa subunit) | DRSC20164 | 1.78e5 | 1.45e5 | 1.77e5 | 1.76e5 | 11895 | inactive |
| Gpa2 (Glycoprotein hormone alpha 2) | DRSC21071 | 1.09e5 | 1.15e5 | 91730 | 1.23e5 | 9050 | inactive |
| up (upheld) | DRSC20382 | 1.49e5 | 1.34e5 | 1.87e5 | 1.74e5 | 8665 | inactive |
| ACXD (Adenylyl cyclase X D) | DRSC07843 | 82125 | 78200 | 1.22e5 | 1.30e5 | 6620 | inactive |
| CG6900 (retired record) | DRSC20018 | 94330 | 85525 | 1.05e5 | 1.16e5 | 10515 | inactive |
| CG31055 | DRSC13832 | 1.59e5 | 1.50e5 | 1.93e5 | 1.52e5 | 14740 | inactive |
| nwk (nervous wreck) | DRSC10442 | 1.96e5 | 1.52e5 | 2.08e5 | 1.86e5 | 10685 | inactive |
| msl-1 (male-specific lethal 1) | DRSC03573 | 58100 | 53520 | 89480 | 1.06e5 | 5460 | inactive |
| CG7069 | DRSC16188 | 1.73e5 | 1.82e5 | 2.27e5 | 2.34e5 | 14825 | inactive |
| CG42304 + Snup | DRSC08276 | 89005 | 88215 | 1.39e5 | 1.79e5 | 6245 | inactive |
| CG42304 + Snup | DRSC08277 | 17085 | 20630 | 31820 | 32990 | 2632 | inactive |
| CG42304 + Snup | DRSC22781 | – | – | – | – | – | inactive |
| CG42245 + MEP-1 | DRSC07993 | 2.08e5 | 1.74e5 | 2.06e5 | 1.62e5 | 16850 | inactive |
| CG42245 + MEP-1 | DRSC08274 | 1.06e5 | 92700 | 1.60e5 | 1.55e5 | 8320 | inactive |
| CG9839 | DRSC16574 | 1.09e5 | 1.03e5 | 76685 | 80300 | 9810 | inactive |
| CG7991 | DRSC08609 | 1.37e5 | 1.59e5 | 1.81e5 | 2.25e5 | 7090 | inactive |
| CG32281 | DRSC08236 | 1.31e5 | 1.30e5 | 98090 | 62455 | 11905 | inactive |
| CG14042 + SP555 | DRSC02367 | 67080 | 62320 | 55575 | 52430 | 7670 | inactive |
| CG14042 + SP555 | DRSC03428 | 1.67e5 | 1.53e5 | 1.69e5 | 1.96e5 | 11555 | inactive |
| CG9578 | DRSC20694 | 1.29e5 | 1.42e5 | 1.01e5 | 61205 | 9050 | inactive |
| CG5805 | DRSC15878 | 2.10e5 | 1.87e5 | 2.45e5 | 2.42e5 | 16515 | inactive |
| CG9497 | DRSC03234 | 95245 | 92630 | 75590 | 75130 | 5750 | inactive |
| Atac2 (Ada2a-containing complex component 2) | DRSC02053 | 2.67e5 | 1.96e5 | 1.99e5 | 1.99e5 | 16510 | inactive |
| SdhBL (Succinate dehydrogenase, subunit B (iron-sulfur)-like) | DRSC20039 | 80190 | 91005 | 95995 | 1.38e5 | 10542 | inactive |
| Klp67A (Kinesin-like protein at 67A) | DRSC11205 | 2.62e5 | 1.71e5 | 2.71e5 | 2.45e5 | 11725 | inactive |
| Cnx99A + Cnx14D | DRSC16610 | 1.28e5 | 1.27e5 | 2.06e5 | 2.15e5 | 10835 | inactive |
| p53 | DRSC17024 | 2.03e5 | 2.00e5 | 3.28e5 | 2.71e5 | 14310 | inactive |
| superdeath (Suppressor of ER stress-induced death) | DRSC14868 | 2.52e5 | 2.06e5 | 2.72e5 | 2.59e5 | 13555 | inactive |
| CG5989 | DRSC10565 | 1.00e5 | 1.32e5 | 1.11e5 | 63195 | 12560 | inactive |
| Dgk (Diacyl glycerol kinase) | DRSC05064 | 28105 | 32385 | 38435 | 25605 | 3240 | inactive |
| Dgk (Diacyl glycerol kinase) | DRSC05065 | 67040 | 92645 | 1.21e5 | 1.18e5 | 3945 | inactive |
| Dgk (Diacyl glycerol kinase) | DRSC06171 | 1.73e5 | 1.55e5 | 1.63e5 | 1.91e5 | 14115 | inactive |
| Dgk (Diacyl glycerol kinase) | DRSC06782 | 2.01e5 | 1.86e5 | 2.60e5 | 2.83e5 | 23050 | inactive |
| Dgk (Diacyl glycerol kinase) | DRSC22236 | – | – | – | – | – | inactive |
| clu (clueless) | DRSC07181 | 1.45e5 | 1.35e5 | 2.37e5 | 2.42e5 | 12600 | inactive |
| CG13991 | DRSC02323 | 75015 | 58500 | 72240 | 70630 | 4650 | inactive |
| CG17239 | DRSC00492 | 85775 | 1.27e5 | 95320 | 49395 | 8005 | inactive |
| CG8671 | DRSC03102 | 70690 | 38020 | 44970 | 50260 | 2780 | inactive |
| CG8671 | DRSC03103 | 1.03e5 | 60735 | 67810 | 86120 | 4585 | inactive |
